In the supplement of paper PMC12889115:
The list shows a part of the results. Values are raw readings; no control value is given beside them.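 Primary screen: polymyxin B was added at a level permeabilizing Salmonella outer membranes while sparing inner membranes. DMSO wells, both with and without polymyxin B, established maximum growth. Plate-to-plate variation meant each plate was ranked on its own, and the lowest-OD600 compounds were selected as hits.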

Test system: Salmonella enterica serovar Typhimurium SL1344
Assay: bacterial growth OD600 after 18 h with compound and polymyxin B; higher = more bacterial growth (less inhibition)
Details: 50 µM, Mueller-Hinton broth

Row | Structure (SMILES) | bacterial growth OD600 (polymyxin B 0.75 µg/mL) | bacterial growth OD600 (polymyxin B 1 µg/mL)
1 | CC(c1ccon1)N(C)C(=O)CC1(c2ccccc2)CC(=O)N(Cc2ccc3c(c2)OCO3)C1=O (stereo not given) | 0.044 | 
2 | O=C(CC(c1cccc(O)c1)c1ccccc1Cl)NCc1ccccn1 (stereo not given) |  | 0.953
3 | CCN(CCn1cccn1)C(=O)CCc1nnc(Cc2c[nH]c3ccccc23)o1 |  | 0.803
4 | COc1ccc(C(CC(=O)N2CCCN(C(C)=O)CC2)c2ccccc2)cc1 (stereo not given) |  | 0.801
5 | CC(=O)NCC(=O)NC(C)c1cnc(N(C)C2CCCCC2)nc1C (stereo not given) |  | 0.924
6 | O=C(/C=C/c1ccco1)NC1CCCN(CCc2ccccc2)C1 (stereo not given) |  | 0.88
7 | CCOC(=O)N1CCN(C2CCCN(C/C(C)=C/c3ccco3)C2)CC1 (stereo not given) |  | 1.21
8 | CCOC(=O)C1(CCOc2ccccc2)CCCN(C(=O)c2ccc(CN(C)C)o2)C1 (stereo not given) |  | 0.985
9 | COc1ccccc1OCC(=O)NCC1CCCN(Cc2csc(C(C)=O)c2)C1 (stereo not given) |  | 0.961
10 | CCN(CCn1cccn1)C(=O)C1CCC(=O)N(CCCN2CCOCC2)C1 (stereo not given) |  | 0.817
11 | Cc1ccccc1-c1cc2c(c(OCC3CCOC3)c1)OCCN(Cc1cccc3cccnc13)C2 (stereo not given) | 0.002 | 
12 | COC(=O)C1CCCCN1Cc1cnc(S(=O)(=O)Cc2ccccc2)n1CC(C)C (stereo not given) |  | 0.042
13 | O=C(NCC1(c2ccccc2)CCCC1)C1CCC(=O)N(Cc2ccccn2)C1 (stereo not given) |  | 1.11
14 | COc1cc(CN2CCC(C(Cc3ccccc3Cl)N(C)C(=O)c3ccco3)CC2)ccc1F (stereo not given) | 0.722 | 
15 | Cn1cc(CN2CCN(C(=O)c3cccs3)CC2)c(-c2ccc3c(c2)OCCO3)n1 |  | 0.742
16 | CCOC(=O)C1(Cc2ccc(F)cc2F)CCCN(C(=O)c2cc(C3CC3)on2)C1 (stereo not given) |  | 0.495
17 | O=C(NCCCN1CCOCC1)c1ccc2nc(C3CCCCC3)oc2c1 |  | 0.857
18 | CSc1ncccc1C(=O)NCc1ccc2[nH]c(C)c(C)c2c1 | 0.776 | 
19 | C=C(C)CNC(=O)c1cc(OC)ccc1OC1CCN(C2CCCC2)CC1 | 0.794 | 
20 | CC(C)(C)NC(=O)CCN1Cc2ccccc2OC(c2ccccc2F)C1 (stereo not given) | 0.925 | 
21 | COC(=O)c1ccc(C(=O)NC2CCCN(Cc3cccc(OC)c3)C2)cc1 (stereo not given) | 0.762 | 
22 | O=C(CCC(F)(F)F)N1CCCC(N2CCN(c3cccc(Cl)c3)CC2)C1 (stereo not given) |  | 0.777
23 | CCS(=O)(=O)Nc1cc(C(=O)N(C)C(C)c2nccs2)c2c(c1)nc(-c1ccccc1)n2C (stereo not given) | 0.829 | 
24 | CN(C(=O)c1cccs1)C(Cc1ccccc1)C1CCN(C(=O)CC2=CCCCC2)CC1 (stereo not given) | 0.013 | 
25 | CCCCc1nc(CN2CCOc3ccc(CN4C[C@@H](C)O[C@@H](C)C4)cc3C2)c[nH]1 | 0.812 | 
26 | CN(CCC1CCOCC1)C(=O)c1ccc2oc(Cc3ccc(Cl)cc3)nc2c1 |  | 1.15
27 | Cc1oc(-c2ccoc2)nc1CN1CCN(c2ccccc2)CC1C (stereo not given) |  | 1.11
28 | COc1ccccc1C1(CC(=O)N2CCCC(C(=O)c3ccccc3)C2)CC(=O)N(C)C1=O (stereo not given) | 0.969 | 
29 | COc1ccc(CC2=NOC(CNC(=O)C(C)Oc3ccc(Cl)cc3C)C2)cc1 (stereo not given) | 0.613 | 
30 | CCCn1ncc(CN2CCCC(CO)(CCc3ccccc3)C2)c1C (stereo not given) |  | 0.993

Two entries picked at random from the list so far, as already listed:
Row | Structure (SMILES) | bacterial growth OD600 (polymyxin B 0.75 µg/mL) | bacterial growth OD600 (polymyxin B 1 µg/mL)
2 | O=C(CC(c1cccc(O)c1)c1ccccc1Cl)NCc1ccccn1 (stereo not given) |  | 0.953
23 | CCS(=O)(=O)Nc1cc(C(=O)N(C)C(C)c2nccs2)c2c(c1)nc(-c1ccccc1)n2C (stereo not given) | 0.829 | 
